Data source: PubChem BioAssay AID504804 (Drosophila RNAi Screening Center, 2011)

Aim: 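dsRNAs that improve Kc cell survival under doxorubicin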 (primary screen)
Cells: Drosophila Kc cells
Knock-down reagent: long dsRNA against Drosophila genes, 0.5 µg dsRNA per well
Duration: 96 h (48 h knock-down, then 48 h drug)
Challenge: doxorubicin 5 µg/ml for 48 h, added 48 h after dsRNA
Read-out: 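Luminescent ATP counts per replicate, not normalised, reflecting viable cells after 48 h dsRNA knock-down followed by 48 h of 5 µg/ml doxorubicin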
Direction: raw ATP luminescence: higher = more viable cells, protection from doxorubicin
Hit rule: 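z-score of 2 or more over plate mean in both duplicates, retained only when retests and separate dsRNAs confirm the protection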
The deposit covers about 19,000 reagents; shown is an unselected part of those that have a named target and a result. Of all reagents, 47 (0.25%) are marked active. 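Signals are raw, not normalised; exact z-scores behind calls not deposited; actives needed confirmation, so some wells reaching 2 SD are inactive.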

qkr58E-2 (GeneID 37562) [DRSC04710] — raw ATP luminescence, replicate 1: 42463; raw ATP luminescence, replicate 2: 43940; Outcome: inactive
Gbp2 (GeneID 36937) [DRSC06069] — raw ATP luminescence, replicate 1: 75223; raw ATP luminescence, replicate 2: 65963; Outcome: inactive
CG10405 (GeneID 41996) [DRSC14238] — raw ATP luminescence, replicate 1: 92060; raw ATP luminescence, replicate 2: 1.17e5; Outcome: inactive
sn (GeneID 31717) [DRSC18834] — raw ATP luminescence, replicate 1: 27860; raw ATP luminescence, replicate 2: 42300; Outcome: inactive
Smyd5 (GeneID 42517) [DRSC15483] — raw ATP luminescence, replicate 1: 32160; raw ATP luminescence, replicate 2: 24650; Outcome: inactive
Six4 (GeneID 40297) [DRSC11881] — raw ATP luminescence, replicate 1: 50603; raw ATP luminescence, replicate 2: 57940; Outcome: inactive
CG33080 (GeneID 31491) [DRSC18080] — raw ATP luminescence, replicate 1: 33320; raw ATP luminescence, replicate 2: 37900; Outcome: inactive
CG33080 (GeneID 31491) [DRSC18081] — raw ATP luminescence, replicate 1: 41710; raw ATP luminescence, replicate 2: 46730; Outcome: inactive
CG33080 (GeneID 31491) [DRSC18285] — raw ATP luminescence, replicate 1: 37310; raw ATP luminescence, replicate 2: 54910; Outcome: inactive
CG5861 (GeneID 34965) [DRSC02907] — raw ATP luminescence, replicate 1: 68997; raw ATP luminescence, replicate 2: 72990; Outcome: inactive
CG31371 (GeneID 43626) [DRSC15079] — raw ATP luminescence, replicate 1: 55230; raw ATP luminescence, replicate 2: 48600; Outcome: inactive
e(y)2 (GeneID 45848) [DRSC19640] — raw ATP luminescence, replicate 1: 2.58e5; raw ATP luminescence, replicate 2: 2.10e5; Outcome: inactive
CG14120 (GeneID 39463) [DRSC10124] — raw ATP luminescence, replicate 1: 83373; raw ATP luminescence, replicate 2: 87813; Outcome: inactive
Sugb (GeneID 39314) [DRSC10815] — raw ATP luminescence, replicate 1: 35133; raw ATP luminescence, replicate 2: 46777; Outcome: inactive
IFT52 (GeneID 33917) [DRSC03271] — raw ATP luminescence, replicate 1: 23840; raw ATP luminescence, replicate 2: 23417; Outcome: inactive
Rab7 (GeneID 42841) [DRSC16810] — raw ATP luminescence, replicate 1: 35670; raw ATP luminescence, replicate 2: 32163; Outcome: inactive
CG14744 (GeneID 35858) [DRSC06480] — raw ATP luminescence, replicate 1: 43857; raw ATP luminescence, replicate 2: 93203; Outcome: inactive
CG11147 (GeneID 33803) [DRSC02129] — raw ATP luminescence, replicate 1: 40220; raw ATP luminescence, replicate 2: 39350; Outcome: inactive
CG16758 (GeneID 38315) [DRSC07984] — raw ATP luminescence, replicate 1: 1.52e5; raw ATP luminescence, replicate 2: 1.10e5; Outcome: inactive
CG16758 (GeneID 38315) [DRSC08492] — raw ATP luminescence, replicate 1: 72413; raw ATP luminescence, replicate 2: 62843; Outcome: inactive
CG31145 (GeneID 42784) [DRSC13634] — raw ATP luminescence, replicate 1: 2.10e5; raw ATP luminescence, replicate 2: 1.89e5; Outcome: inactive
CG31145 (GeneID 42784) [DRSC14206] — raw ATP luminescence, replicate 1: 54810; raw ATP luminescence, replicate 2: 56770; Outcome: inactive
CG31145 (GeneID 42784) [DRSC14670] — raw ATP luminescence, replicate 1: 20550; raw ATP luminescence, replicate 2: 20250; Outcome: inactive
CG31145 (GeneID 42784) [DRSC14671] — raw ATP luminescence, replicate 1: 55770; raw ATP luminescence, replicate 2: 39440; Outcome: inactive
sds22 (GeneID 42091) [DRSC17052] — raw ATP luminescence, replicate 1: 65530; raw ATP luminescence, replicate 2: 66610; Outcome: inactive
CG7054 (GeneID 42643) [DRSC16185] — raw ATP luminescence, replicate 1: 38623; raw ATP luminescence, replicate 2: 39127; Outcome: inactive
Cpr60D (GeneID 246492) [DRSC04492] — raw ATP luminescence, replicate 1: 66110; raw ATP luminescence, replicate 2: 71413; Outcome: inactive
Notum (GeneID 39751) [DRSC09959] — raw ATP luminescence, replicate 1: 49963; raw ATP luminescence, replicate 2: 49507; Outcome: inactive

An excerpt from above, limited to “raw ATP luminescence, replicate 2”.
Sugb (GeneID 39314) [DRSC10815] = 46777
IFT52 (GeneID 33917) [DRSC03271] = 23417
Rab7 (GeneID 42841) [DRSC16810] = 32163
CG14744 (GeneID 35858) [DRSC06480] = 93203
